Paper PMC7946975
No constants are given. Whether binding was seen depends on the method and setting. In cells and extracts the contact can be indirect. Some entries that bind do so weakly or less than the wild type.

Chains of the proteins cited; added tags and fusions are not shown.
UniProt P42227: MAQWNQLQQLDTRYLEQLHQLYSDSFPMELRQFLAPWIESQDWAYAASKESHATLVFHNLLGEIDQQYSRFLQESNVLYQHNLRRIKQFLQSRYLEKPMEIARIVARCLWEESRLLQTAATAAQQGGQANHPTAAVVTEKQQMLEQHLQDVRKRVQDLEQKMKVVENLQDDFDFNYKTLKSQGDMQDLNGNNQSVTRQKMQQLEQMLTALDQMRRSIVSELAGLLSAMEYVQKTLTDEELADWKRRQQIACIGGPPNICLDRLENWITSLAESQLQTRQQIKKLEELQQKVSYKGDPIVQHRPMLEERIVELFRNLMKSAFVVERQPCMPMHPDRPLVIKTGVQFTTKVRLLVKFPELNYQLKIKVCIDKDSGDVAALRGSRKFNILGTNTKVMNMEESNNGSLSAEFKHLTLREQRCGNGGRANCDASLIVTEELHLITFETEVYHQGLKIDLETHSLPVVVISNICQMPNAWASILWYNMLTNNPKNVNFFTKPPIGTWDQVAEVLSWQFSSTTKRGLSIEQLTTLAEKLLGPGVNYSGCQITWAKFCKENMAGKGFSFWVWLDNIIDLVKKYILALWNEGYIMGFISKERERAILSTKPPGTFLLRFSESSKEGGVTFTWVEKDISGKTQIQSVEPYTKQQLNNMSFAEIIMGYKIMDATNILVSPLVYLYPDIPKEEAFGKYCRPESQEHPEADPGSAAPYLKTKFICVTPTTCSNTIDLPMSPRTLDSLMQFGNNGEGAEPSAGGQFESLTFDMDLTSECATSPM

Target: signal transducer and activator of transcription 3 (mouse (endogenous in MDSCs of C57BL/6 mice)) (UniProt P42227)
Assay: co-IP; lysate of tumor-derived MDSCs; precipitated with anti-STAT3 Abs or IgG Abs and Protein A/G plus-agarose beads, overnight at 4°C; TRAF6 and STAT3 detected by Western blotting

B1: Tumor necrosis factor receptor-associated factor 6 (protein, UniProt P70196 1-530)
chain: MSLLNCENSCGSSQSSSDCCAAMAASCSAAVKDDSVSGSASTGNLSSSFMEEIQGYDVEFDPPLESKYECPICLMALREAVQTPCGHRFCKACIIKSIRDAGHKCPVDNEILLENQLFPDNFAKREILSLTVKCPNKGCLQKMELRHLEDHQVHCEFALVNCPQCQRPFQKCQVNTHIIEDCPRRQVSCVNCAVSMAYEEKEIHDQSCPLANIICEYCGTILIREQMPNHYDLDCPTAPIPCTFSVFGCHEKMQRNHLARHLQENTQLHMRLLAQAVHNVNLALRPCDAASPSRGCRPEDPNYEETIKQLESRLVRQDHQIRELTAKMETQSMYVGELKRTIRTLEDKVAEMEAQQCNGIYIWKIGNFGMHLKSQEEERPVVIHSPGFYTGRPGYKLCMRLHLQLPTAQRCANYISLFVHTMQGEYDSHLPWPFQGTIRLTILDQSEALIRQNHEEVMDAKPELLAFQRPTIPRNPKGFGYVTFMHLEALRQGTFIKDDTLLVRCEVSTRFDMGGLRKEGFQPRSTDAGV
binding: binds
